Values from PubChem BioAssay AID1159584 (Peter MacCallum Cancer Centre, 2016).
The whole screen tested about 18,000 reagents; shown is a part drawn at random. Further read-outs or replicates are left out here. Not stated in the record: the amount of reagent, the time to read-out.

Screen: 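Genes whose loss is lethal only together with E-cadherin loss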 (primary screen)
System: human MCF10A breast epithelial cells, parental and CDH1-null
Knock-down reagent: siRNA against human genes
Read-out: 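ATP luminescence (CellTiter-Glo) viability per line relative to mean mock wells over all plates, and the ratio of CDH1-null to parental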
Direction: CDH1-null / parental viability ratio: higher = CDH1-null cells survive relatively better than parental; CDH1-null viability vs mock: higher = more viable CDH1-null cells

no.	gene	PubChem SID	CDH1-null / parental viability ratio	CDH1-null viability vs mock (fraction of mock)
1	COA6 (GeneID 388753)	SID135624697	0.92	0.8
2	RBM11 (GeneID 54033)	SID134319479	0.85	0.82
3	ARIH2 (GeneID 10425)	SID152150621	0.92	0.81
4	TLR10 (GeneID 81793)	SID152147221	1.09	0.96
5	ATP5F1D (GeneID 513)	SID152148280	0.86	0.95
6	SORT1 (GeneID 6272)	SID152151915	0.69	0.4
7	USP24 (GeneID 23358)	SID152153764	1.21	0.64
8	CACNA1E (GeneID 777)	SID152153742	1.27	1.04
9	DCAF12 (GeneID 25853)	SID134317224	1.12	0.9
10	KRTAP19-3 (GeneID 337970)	SID152149842	0.89	0.62
11	PDGFC (GeneID 56034)	SID135622463	1.16	1.14
12	ATP1B2 (GeneID 482)	SID134314831	1.09	0.61
13	RBM43 (GeneID 375287)	SID134326854	0.96	0.9
14	FAM78A (GeneID 286336)	SID152152747	0.79	0.5
15	RAB4A (GeneID 5867)	SID134313406	1.29	1.23
16	POLN (GeneID 353497)	SID152154265	1.09	1.02
17	SSMEM1 (GeneID 136263)	SID135623064	0.79	0.57
18	TMED10 (GeneID 10972)	SID152154749	0.94	0.64
19	PCDHA5 (GeneID 56143)	SID134317488	1.04	1.08
20	DEXI (GeneID 28955)	SID134323237	1.18	1.03
21	TOP1 (GeneID 7150)	SID134310847	0.96	1.02
22	CBY1 (GeneID 25776)	SID152156516	0.73	0.45
23	SPOUT1 (GeneID 51490)	SID134315287	0.74	0.4
24	IFI16 (GeneID 3428)	SID152151045	1.02	0.9
25	PRKCSH (GeneID 5589)	SID56479239	0.94	0.78
26	KLHDC8A (GeneID 55220)	SID134324543	1	0.68
27	ELOVL1 (GeneID 64834)	SID134314110	0.69	0.37
28	DNAJC10 (GeneID 54431)	SID134317961	0.95	0.78
29	S100G (GeneID 795)	SID152147689	0.84	0.51
30	DISP2 (GeneID 85455)	SID134317939	1.07	0.43
31	MPPED2 (GeneID 744)	SID134314111	1.04	1.16
32	CT47A5 (GeneID 728072)	SID135625659	0.89	0.4
33	PARL (GeneID 55486)	SID152155594	0.91	0.62
34	DNAJC24 (GeneID 120526)	SID134313723	1	0.8
35	HTRA1 (GeneID 5654)	SID152153730	1.1	0.43
36	SNAP91 (GeneID 9892)	SID152154955	0.86	0.96
37	BEX2 (GeneID 84707)	SID152151680	0.81	0.5
38	ABCC10 (GeneID 89845)	SID134312357	0.76	0.67
39	TNFRSF14 (GeneID 8764)	SID134313023	0.87	0.88
40	OR10R2 (GeneID 343406)	SID152146880	1.25	1.06
41	UBE2R2 (GeneID 54926)	SID152149892	1.14	0.96
42	C1orf21 (GeneID 81563)	SID152149711	0.96	0.48
43	MS4A5 (GeneID 64232)	SID134321474	1.31	0.92
44	PALM2AKAP2 (GeneID 445815)	SID135622905	1.28	0.92
45	PALM2AKAP2 (GeneID 445815)	SID135625364	0.96	1.02
46	PALM2AKAP2 (GeneID 445815)	SID152153662	1	0.78
47	CEP192 (GeneID 55125)	SID152151079	1.08	0.82
48	PSEN2 (GeneID 5664)	SID152147690	1.2	0.77
49	PABIR1 (GeneID 116224)	SID134319537	0.81	0.73
50	SPIB (GeneID 6689)	SID135623818	0.84	0.57
51	MAS1 (GeneID 4142)	SID134310022	0.86	0.98
52	KBTBD3 (GeneID 143879)	SID134320942	1.17	0.94
53	PPP1R3D (GeneID 5509)	SID134325019	1.35	1
54	ACTRT2 (GeneID 140625)	SID152149214	1.06	0.76
55	RBMXL2 (GeneID 27288)	SID152148690	1.11	0.82
56	KLKB1 (GeneID 3818)	SID152149799	1.29	0.9
57	ERBIN (GeneID 55914)	SID152148939	0.82	0.66
58	TPD52L2 (GeneID 7165)	SID152151699	1.12	0.57
59	RADIL (GeneID 55698)	SID152148987	1.26	0.88
60	OGFRL1 (GeneID 79627)	SID152153483	1.1	0.99
61	ART5 (GeneID 116969)	SID152153387	1	0.52
62	NR1H3 (GeneID 10062)	SID134309864	0.78	0.68
63	PTK7 (GeneID 5754)	SID135620629	1.1	0.66
64	KRTAP3-3 (GeneID 85293)	SID135622581	0.68	0.68
65	FSCB (GeneID 84075)	SID134322448	1.11	1.05
66	DACT3 (GeneID 147906)	SID135622992	1.06	0.57
67	PRKCD (GeneID 5580)	SID56478673	1.07	0.86
68	SH2D1B (GeneID 117157)	SID152151998	0.77	0.7
